Data as given in PubChem BioAssay AID602196 (INSERM, 2012)
Assay: 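Genes whose knock-down alters cisplatin killing of lung cancer cells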. Cell system: human A549 lung cancer cells. Reagents: siRNA pair against human genes. Duration: 48 h transfection before cisplatin; time from cisplatin to read-out not stated. Challenge: cisplatin at a dose killing half of control-siRNA cells; exact dose and duration not given. Detection: 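Shift in cisplatin death relative to control siRNA, from -50 (all cells die) to +50 (no cells die); siRNAs harmful on their own scored 0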. Reading the numbers: two-siRNA summed score (-2 to +2): higher = both siRNAs protect from cisplatin killing; -2 means both sensitise; mean protection from cisplatin (shift in death): higher = protection from cisplatin killing. Active means: 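Each siRNA scores 0 if harmful alone by LDH or WST-1, otherwise +1 if it reduces and -1 if it increases cisplatin killing; a gene is active when both siRNAs agree (sum +2 or -2)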. Calls: active = both siRNAs shift cisplatin killing the same way; inactive = no consistent shift, or siRNA harmful alone.
In all, the deposit lists about 23,000 reagents; this is a random part of them. 455 of them (2%) were called active. 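Active includes both protection and sensitisation; some change values fall well beyond the stated -50 to +50 range.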 Further read-outs or replicates are left out here. Not given: the amount of reagent.

LOC441771 — two-siRNA summed score (-2 to +2): 1; mean protection from cisplatin (shift in death) (%): 11.7; activity call: inactive
LOC440387 — two-siRNA summed score (-2 to +2): 1; mean protection from cisplatin (shift in death) (%): 12.5; activity call: inactive
MGAT4D — two-siRNA summed score (-2 to +2): 0; mean protection from cisplatin (shift in death) (%): 10; activity call: inactive
LOC401212 — two-siRNA summed score (-2 to +2): 0; mean protection from cisplatin (shift in death) (%): 0.4; activity call: inactive
OGDHL — two-siRNA summed score (-2 to +2): 0; mean protection from cisplatin (shift in death) (%): 3; activity call: inactive
OAF — two-siRNA summed score (-2 to +2): 1; mean protection from cisplatin (shift in death) (%): 12.5; activity call: inactive
LOC441663 — two-siRNA summed score (-2 to +2): 1; mean protection from cisplatin (shift in death) (%): 18.3; activity call: inactive
DPP4 — two-siRNA summed score (-2 to +2): 0; mean protection from cisplatin (shift in death) (%): 4.9; activity call: inactive
LOC389276 — two-siRNA summed score (-2 to +2): 0; mean protection from cisplatin (shift in death) (%): 5.4; activity call: inactive
PAX8 — two-siRNA summed score (-2 to +2): 0; mean protection from cisplatin (shift in death) (%): 1.3; activity call: inactive
TFF3 — two-siRNA summed score (-2 to +2): 0; mean protection from cisplatin (shift in death) (%): 3.9; activity call: inactive
CAPSL — two-siRNA summed score (-2 to +2): 0; mean protection from cisplatin (shift in death) (%): 4; activity call: inactive
LINC02796 — two-siRNA summed score (-2 to +2): 0; mean protection from cisplatin (shift in death) (%): 10.4; activity call: inactive
HAND1 — two-siRNA summed score (-2 to +2): 0; mean protection from cisplatin (shift in death) (%): -3.8; activity call: inactive
MIGA1 — two-siRNA summed score (-2 to +2): 0; mean protection from cisplatin (shift in death) (%): 5.4; activity call: inactive
LOC440817 — two-siRNA summed score (-2 to +2): 0; mean protection from cisplatin (shift in death) (%): 18.4; activity call: inactive
POLR3G — two-siRNA summed score (-2 to +2): 2; mean protection from cisplatin (shift in death) (%): 19.3; activity call: active
CFAP77 — two-siRNA summed score (-2 to +2): 0; mean protection from cisplatin (shift in death) (%): 11.8; activity call: inactive
LOC387649 — two-siRNA summed score (-2 to +2): 1; mean protection from cisplatin (shift in death) (%): 2; activity call: inactive
CFAP54 — two-siRNA summed score (-2 to +2): 1; mean protection from cisplatin (shift in death) (%): 21.9; activity call: inactive
ERICH6 — two-siRNA summed score (-2 to +2): 0; mean protection from cisplatin (shift in death) (%): 2.3; activity call: inactive
ZNF536 — two-siRNA summed score (-2 to +2): 0; mean protection from cisplatin (shift in death) (%): -1.7; activity call: inactive
LOC142937 (retired record) — two-siRNA summed score (-2 to +2): 1; mean protection from cisplatin (shift in death) (%): 9; activity call: inactive
LOC440910 — two-siRNA summed score (-2 to +2): 1; mean protection from cisplatin (shift in death) (%): 23.1; activity call: inactive
NOX3 — two-siRNA summed score (-2 to +2): 0; mean protection from cisplatin (shift in death) (%): -1.9; activity call: inactive
LOC123346 — two-siRNA summed score (-2 to +2): 1; mean protection from cisplatin (shift in death) (%): 20.8; activity call: inactive
CYP2A7 — two-siRNA summed score (-2 to +2): 0; mean protection from cisplatin (shift in death) (%): 14.3; activity call: inactive
UBE2F — two-siRNA summed score (-2 to +2): 1; mean protection from cisplatin (shift in death) (%): 5; activity call: inactive
CSF3R — two-siRNA summed score (-2 to +2): -2; mean protection from cisplatin (shift in death) (%): -16.1; activity call: active
CFAP69 — two-siRNA summed score (-2 to +2): -1; mean protection from cisplatin (shift in death) (%): -4.2; activity call: inactive
ANGPTL4 — two-siRNA summed score (-2 to +2): 0; mean protection from cisplatin (shift in death) (%): 0.9; activity call: inactive

Entries above whose gene name begins with C or c:
CAPSL — two-siRNA summed score (-2 to +2): 0; mean protection from cisplatin (shift in death) (%): 4; activity call: inactive
CFAP77 — two-siRNA summed score (-2 to +2): 0; mean protection from cisplatin (shift in death) (%): 11.8; activity call: inactive
CFAP54 — two-siRNA summed score (-2 to +2): 1; mean protection from cisplatin (shift in death) (%): 21.9; activity call: inactive
CYP2A7 — two-siRNA summed score (-2 to +2): 0; mean protection from cisplatin (shift in death) (%): 14.3; activity call: inactive
CSF3R — two-siRNA summed score (-2 to +2): -2; mean protection from cisplatin (shift in death) (%): -16.1; activity call: active
CFAP69 — two-siRNA summed score (-2 to +2): -1; mean protection from cisplatin (shift in death) (%): -4.2; activity call: inactive
